The source of these data is paper PMC11724082.

Sequences of proteins named here, by UniProt entry; tags and fusion partners are left off.
UniProt P17931: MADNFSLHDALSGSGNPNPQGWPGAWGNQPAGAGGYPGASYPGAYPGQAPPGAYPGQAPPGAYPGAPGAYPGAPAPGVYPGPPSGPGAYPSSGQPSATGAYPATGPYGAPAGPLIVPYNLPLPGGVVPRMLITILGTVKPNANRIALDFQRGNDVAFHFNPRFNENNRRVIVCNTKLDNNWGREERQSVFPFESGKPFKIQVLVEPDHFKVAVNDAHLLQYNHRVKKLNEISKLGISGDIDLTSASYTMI

No constants are given. Whether binding was seen depends on the method and setting. In cells and extracts the contact can be indirect. Some results given as binding are weak or reduced against the parent protein; the word gives no strength.

This assay addresses T1, USP15 (UniProt Q9Y4E8).
T1 sequence: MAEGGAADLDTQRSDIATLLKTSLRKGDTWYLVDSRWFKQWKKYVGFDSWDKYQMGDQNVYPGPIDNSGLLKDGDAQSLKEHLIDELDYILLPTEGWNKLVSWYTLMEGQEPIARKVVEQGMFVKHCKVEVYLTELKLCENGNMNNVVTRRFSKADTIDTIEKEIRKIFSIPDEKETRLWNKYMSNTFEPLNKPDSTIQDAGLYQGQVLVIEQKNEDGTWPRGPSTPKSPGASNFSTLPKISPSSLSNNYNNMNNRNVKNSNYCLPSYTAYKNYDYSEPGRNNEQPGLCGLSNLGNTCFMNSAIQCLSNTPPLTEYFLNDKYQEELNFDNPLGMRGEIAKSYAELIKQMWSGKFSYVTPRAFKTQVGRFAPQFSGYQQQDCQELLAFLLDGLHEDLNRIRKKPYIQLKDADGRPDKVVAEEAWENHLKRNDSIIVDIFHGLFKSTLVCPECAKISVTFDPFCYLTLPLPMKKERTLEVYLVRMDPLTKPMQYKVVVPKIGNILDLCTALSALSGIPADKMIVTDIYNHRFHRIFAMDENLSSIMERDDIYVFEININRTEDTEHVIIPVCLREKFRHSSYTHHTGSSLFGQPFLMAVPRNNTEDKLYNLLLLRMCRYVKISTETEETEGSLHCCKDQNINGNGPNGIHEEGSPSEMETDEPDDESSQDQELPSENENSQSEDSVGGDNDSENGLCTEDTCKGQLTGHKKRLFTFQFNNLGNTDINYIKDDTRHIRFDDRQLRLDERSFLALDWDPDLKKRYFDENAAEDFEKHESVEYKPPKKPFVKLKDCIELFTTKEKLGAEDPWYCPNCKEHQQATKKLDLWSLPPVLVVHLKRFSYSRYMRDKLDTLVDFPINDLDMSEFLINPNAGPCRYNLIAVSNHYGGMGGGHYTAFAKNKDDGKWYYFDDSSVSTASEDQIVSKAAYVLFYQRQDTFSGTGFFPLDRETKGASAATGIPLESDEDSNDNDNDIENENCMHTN
The assay can be described thus: co-IP; co-immunoprecipitation of USP15 and LGALS3 from HCC cells; details in Additional File 2 (not shown).

As for LGALS3 (from UniProt P17931 1-250), the binding entry is on record as “binds”.
